# Experimental data as given in publication PMC8692152.
# Chains of the proteins cited; added tags and fusions are not shown. Lines headed by an entry give the natural chain unless they say otherwise; changes in a name come on top.
# UniProt Q16254: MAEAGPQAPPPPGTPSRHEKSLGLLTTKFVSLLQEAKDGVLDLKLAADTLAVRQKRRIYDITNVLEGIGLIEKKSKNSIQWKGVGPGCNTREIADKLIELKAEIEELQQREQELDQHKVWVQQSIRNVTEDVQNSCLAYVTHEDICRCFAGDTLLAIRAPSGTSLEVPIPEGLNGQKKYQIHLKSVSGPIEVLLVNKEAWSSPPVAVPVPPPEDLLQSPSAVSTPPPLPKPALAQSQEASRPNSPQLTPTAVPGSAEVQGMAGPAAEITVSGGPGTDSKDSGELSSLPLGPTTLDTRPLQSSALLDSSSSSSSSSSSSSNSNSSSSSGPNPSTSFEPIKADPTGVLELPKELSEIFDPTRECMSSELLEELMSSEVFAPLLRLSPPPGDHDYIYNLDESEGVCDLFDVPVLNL
# These are yes or no findings as the source states them, for the method shown. For some assays here: Binding seen in cells or lysates may run through a third protein. Some results given as binding are weak or reduced against the parent protein; the word gives no strength. Tags and fused reporters may be left off the sequences shown.
# Assays:
# [1] = target: EGFP-E2F4 fusion protein (E2F transcription factor 4) (UniProt Q16254); assay: co-IP; lysates of HepG2 cells overexpressing mCherry-Id1 and EGFP-E2F4; IP with anti-Cherry or anti-GFP, protein A/G agarose; lysis buffer 50 mM Tris-Cl pH 7.5, 50 mM NaCl, 5 mM EDTA, 1% NP-40; 4 C; western blot
# [2] = target: GST-E2F4 (UniProt Q16254); assay: pull-down; GST-E2F4 as bait on GST affinity column, His-Id1 as prey; washed with PBS, eluted by glutathione; western blot with anti-Id1, anti-His, anti-E2F4, anti-GST; both purified
binding [1],binding [2],Binder
binds,,"mCherry-Id1 fusion protein (Inhibitor of differentiation/DNA binding 1) (protein, UniProt P41134 1-155) MKVASGSTATAAAGPSCALKAGKTASGAGEVVRCLSEQSVAISRCAGGAGARLPALLDEQQVNVLLYDMNGCYSRLKELVPTLPQNRKVSKVEILQHVIDYIRDLQLELNSESEVGTPGGRGLPVRAPLSTLNGEISALTAEAACVPADDRILCR"
,binds,"His-Id1 (protein, UniProt P41134 1-155) MKVASGSTATAAAGPSCALKAGKTASGAGEVVRCLSEQSVAISRCAGGAGARLPALLDEQQVNVLLYDMNGCYSRLKELVPTLPQNRKVSKVEILQHVIDYIRDLQLELNSESEVGTPGGRGLPVRAPLSTLNGEISALTAEAACVPADDRILCR"
